Reference: US20170327600

Amino acid sequences for entries named in this document (tags omitted). A change or cut given only in a name is not applied to a line headed by its entry.
UniProt O29494: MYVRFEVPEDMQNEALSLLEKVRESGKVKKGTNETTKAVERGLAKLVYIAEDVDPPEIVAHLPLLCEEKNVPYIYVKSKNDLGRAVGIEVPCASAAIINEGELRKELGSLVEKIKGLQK
UniProt Q9UPY3: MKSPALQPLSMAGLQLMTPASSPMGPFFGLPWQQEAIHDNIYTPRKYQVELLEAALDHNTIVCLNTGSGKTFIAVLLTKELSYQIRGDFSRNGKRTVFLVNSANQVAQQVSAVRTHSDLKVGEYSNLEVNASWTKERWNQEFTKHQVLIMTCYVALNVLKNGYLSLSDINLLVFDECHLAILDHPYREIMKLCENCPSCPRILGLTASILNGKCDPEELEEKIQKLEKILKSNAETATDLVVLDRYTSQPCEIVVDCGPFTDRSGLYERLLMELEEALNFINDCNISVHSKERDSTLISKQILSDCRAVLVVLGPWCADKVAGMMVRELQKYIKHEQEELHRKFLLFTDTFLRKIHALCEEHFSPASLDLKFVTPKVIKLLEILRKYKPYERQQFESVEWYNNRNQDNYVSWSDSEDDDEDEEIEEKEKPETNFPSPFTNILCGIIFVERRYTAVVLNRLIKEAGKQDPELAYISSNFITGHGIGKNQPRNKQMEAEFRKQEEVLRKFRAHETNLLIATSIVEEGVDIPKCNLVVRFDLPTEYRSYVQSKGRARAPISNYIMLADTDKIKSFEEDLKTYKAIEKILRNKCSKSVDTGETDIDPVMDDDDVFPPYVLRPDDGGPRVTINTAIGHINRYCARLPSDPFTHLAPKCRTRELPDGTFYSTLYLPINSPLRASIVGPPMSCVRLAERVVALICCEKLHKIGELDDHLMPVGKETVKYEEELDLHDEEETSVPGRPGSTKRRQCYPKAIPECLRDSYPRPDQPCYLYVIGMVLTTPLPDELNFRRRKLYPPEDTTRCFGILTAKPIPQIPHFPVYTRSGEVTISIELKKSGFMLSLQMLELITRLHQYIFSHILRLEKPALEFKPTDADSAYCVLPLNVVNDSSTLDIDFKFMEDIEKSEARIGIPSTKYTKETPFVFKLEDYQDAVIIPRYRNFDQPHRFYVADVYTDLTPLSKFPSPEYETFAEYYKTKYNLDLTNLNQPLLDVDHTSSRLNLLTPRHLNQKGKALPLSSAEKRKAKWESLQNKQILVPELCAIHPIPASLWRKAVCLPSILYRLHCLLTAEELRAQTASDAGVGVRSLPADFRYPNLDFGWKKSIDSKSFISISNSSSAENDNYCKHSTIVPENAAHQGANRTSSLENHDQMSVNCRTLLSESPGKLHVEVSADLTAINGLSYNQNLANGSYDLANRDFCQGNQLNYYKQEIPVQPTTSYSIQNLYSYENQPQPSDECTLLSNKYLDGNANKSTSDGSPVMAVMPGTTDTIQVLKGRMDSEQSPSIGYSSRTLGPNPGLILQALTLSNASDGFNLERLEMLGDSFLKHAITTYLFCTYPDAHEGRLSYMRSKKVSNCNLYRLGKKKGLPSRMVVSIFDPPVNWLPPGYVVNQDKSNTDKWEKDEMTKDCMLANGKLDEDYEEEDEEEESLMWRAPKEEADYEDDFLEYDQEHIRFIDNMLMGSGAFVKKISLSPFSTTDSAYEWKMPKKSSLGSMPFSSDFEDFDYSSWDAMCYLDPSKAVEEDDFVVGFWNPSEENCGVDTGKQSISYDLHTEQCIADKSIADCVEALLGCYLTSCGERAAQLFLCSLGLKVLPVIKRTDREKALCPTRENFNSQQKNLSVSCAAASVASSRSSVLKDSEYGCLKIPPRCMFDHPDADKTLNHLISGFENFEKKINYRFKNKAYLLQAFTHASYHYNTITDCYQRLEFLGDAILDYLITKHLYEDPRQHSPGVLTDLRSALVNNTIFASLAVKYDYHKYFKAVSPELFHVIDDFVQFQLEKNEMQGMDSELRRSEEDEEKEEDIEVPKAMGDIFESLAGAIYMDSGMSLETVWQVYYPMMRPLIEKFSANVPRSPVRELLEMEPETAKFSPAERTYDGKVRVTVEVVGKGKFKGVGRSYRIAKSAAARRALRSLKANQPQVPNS

Legend:
L7Ae [1] = target: L7Ae (UniProt O29494); test: EMSA; conditions: purified recombinant protein
L7Ae-Affibody (L7Ae-AFB) = L7Ae-Affibody (L7Ae-AFB) (UniProt O29494); test: EMSA; conditions: purified recombinant protein
Dicer = Dicer (UniProt Q9UPY3); test: enzyme reaction in vitro; conditions: positive control, ATP, 37 C 16 h; purified recombinant protein; protein details: recombinant Dicer (Genlantis)
L7Ae [2] = target: L7Ae (UniProt O29494); test: binding assay; conditions: CITED RNA. 2005 11(8):1192-200; sequence of cited RNA not given, box C/D motif from listing; purified recombinant protein

“GGACGAGCUGUACACCACACGGACAUGACCACCAAAACUCUGGCGUGAUGAGCUCUUUUACGGUGCUGAUGGGGAGCAGGUCUGACCCGCACGCACGCGGAGGGACCGCAGGCCCUUUCAGGAGGCGUGAUGAGCCAAGCGUGGCGAUAGGUACCAAUAUAAGCGGGCGGCUGCCAUGUAAUCACCAACGGAUAAUUUGCGGUUUGGCGUGAUGAGCUUGAGGUCAACGUCAAGGUUUCGCGGUGC / GGUGUACAGCUCGUCCGCACCGCGAAACCUUGACGUUGACCUCAAGCUCUGACCAAACCGCAAAUUAUCCGUUGGUGAUUACAUGGCAGCCGCCCGCUUAUAUUGGUACCUAUCGCCACGCUUGGCUCUGACCUCCUGAAAGGGCCUGCGGUCCCUCCGCGUGCGUGCGGGUCAGACCUGCUCCCCAUCAGCACCGUAAAAGAGCUCUGACCAGAGUUUUGGUGGUCAUGUCCGUGU [LS-70]”: binds (L7Ae [1]; triangle also by HS-AFM); binds (L7Ae-Affibody (L7Ae-AFB)).

“GGACGAGCUGUACACCACACGGACAUGACCCAACCAAUUACACCAAAACUCUGGCGUGAUGAGCUCUUUUACGGUGCUGAUGGGGAGCAGGUGUGCCGAUGCUGCGUAUCCGGUCUGACCCGCACGCACGCGGAGGGACCGCAGGCCCUUUCAGGAGGCGUGAUGAGCCAAGCGUGGCGAUAGGUACCAAUCCAAGCCUAAUGGUUGCGGUCGAUAAGCGGGCGGCUGCCAUGUAAUCACCAACGGAUAAUUUGCGGUUUGGCGUGAUGAGCUUGAGGUCAACGAGGAAGUUCGCUCAAGGUUUCGCGGUGC / GGUGUACAGCUCGUCCGCACCGCGAAACCUUGAGCGAACUUCCUCGUUGACCUCAAGCUCUGACCAAACCGCAAAUUAUCCGUUGGUGAUUACAUGGCAGCCGCCCGCUUAUCGACCGCAACCAUUAGGCUUGGAUUGGUACCUAUCGCCACGCUUGGCUCUGACCUCCUGAAAGGGCCUGCGGUCCCUCCGCGUGCGUGCGGGUCAGACCGGAUACGCAGCAUCGGCACACCUGCUCCCCAUCAGCACCGUAAAAGAGCUCUGACCAGAGUUUUGGUGUAAUUGGUUGGGUCAUGUCCGUGU [LS-92]”: binds (L7Ae [1]; triangle by HS-AFM somewhat deformed); binds (L7Ae-Affibody (L7Ae-AFB)).

In the case of “GGCAUCAAGGUGAACUUCAAGAUCCAGCAUAGGGAUCUUGAAGUUCACCUUGAUGCCAG [sh-GFP]”, the “activity on this sequence” value (Dicer) is reported as “active”.

In the case of GGCGUGAUGAGC / GCUCUGACC [Box C/D], the Kd (L7Ae [2]) is reported as 0.9 nM.

For part of these data: The exact form of at least one protein or probe is not confirmed.
